According to patent US20090285803A1:
These are yes or no findings as the source states them, for the method shown. Some results given as binding are weak or reduced against the parent protein; the word gives no strength.

What was measured:
Nogo Receptor (human) = target: T1, Nogo Receptor (human) (UniProt Q9BZR6); experiment: expression cloning; AP-fusion bait (20-50 nM) on transfected COS7 cells, chromogenic AP staining
T1 sequence (looked up): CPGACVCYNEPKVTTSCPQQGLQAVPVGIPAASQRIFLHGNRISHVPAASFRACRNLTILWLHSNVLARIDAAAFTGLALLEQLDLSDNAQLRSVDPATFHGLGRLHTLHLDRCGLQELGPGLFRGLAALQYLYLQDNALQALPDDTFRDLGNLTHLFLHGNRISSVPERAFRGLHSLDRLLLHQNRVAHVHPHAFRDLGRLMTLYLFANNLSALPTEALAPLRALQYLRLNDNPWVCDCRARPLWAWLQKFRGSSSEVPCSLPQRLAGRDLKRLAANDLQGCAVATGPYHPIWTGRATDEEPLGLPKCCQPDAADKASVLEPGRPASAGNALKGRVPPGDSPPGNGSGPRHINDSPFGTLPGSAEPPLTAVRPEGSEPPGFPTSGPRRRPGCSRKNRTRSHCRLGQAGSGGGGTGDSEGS

[1] = target: T2, Homo sapiens hypothetical protein from clone 643 (LOC57228), alternative ORF homologous to SMAG (human) (UniProt Q0VAQ4); experiment: as above
T2 sequence (looked up): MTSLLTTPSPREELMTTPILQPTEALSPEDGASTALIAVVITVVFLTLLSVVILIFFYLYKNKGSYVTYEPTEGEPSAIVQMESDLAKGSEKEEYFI

- binding (Nogo Receptor (human)): binds
- binding [1]: binds
B1: MAG-AP (ligand, UniProt P20916 20-516, looked up, not shown: large carriers)
chain: GHWGAWMPSSISAFEGTCVSIPCRFDFPDELRPAVVHGVWYFNSPYPKNYPPVVFKSRTQVVHESFQGRSRLLGDLGLRNCTLLLSNVSPELGGKYYFRGDLGGYNQYTFSEHSVLDIVNTPNIVVPPEVVAGTEVEVSCMVPDNCPELRPELSWLGHEGLGEPAVLGRLREDEGTWVQVSLLHFVPTREANGHRLGCQASFPNTTLQFEGYASMDVKYPPVIVEMNSSVEAIEGSHVSLLCGADSNPPPLLTWMRDGTVLREAVAESLLLELEEVTPAEDGVYACLAENAYGQDNRTVGLSVMYAPWKPTVNGTMVAVEGETVSILCSTQSNPDPILTIFKEKQILSTVIYESELQLELPAVSPEDDGEYWCVAENQYGQRATAFNLSVEFAPVLLLESHCAAARDTVQCLCVVKSNPEPSVAFELPSRNVTVNESEREFVYSERSGLVLTSILTLRGQAQAPPRVICTARNLYGAKSLELPFQGAHRLMWAKIGP
